The values that follow come from the supplement of paper PMC10849652.

Sequences of proteins named here, by UniProt entry; tags and fusion partners are left off. A change or cut given only in a name is not applied to a line headed by its entry.
UniProt Q8TDR0: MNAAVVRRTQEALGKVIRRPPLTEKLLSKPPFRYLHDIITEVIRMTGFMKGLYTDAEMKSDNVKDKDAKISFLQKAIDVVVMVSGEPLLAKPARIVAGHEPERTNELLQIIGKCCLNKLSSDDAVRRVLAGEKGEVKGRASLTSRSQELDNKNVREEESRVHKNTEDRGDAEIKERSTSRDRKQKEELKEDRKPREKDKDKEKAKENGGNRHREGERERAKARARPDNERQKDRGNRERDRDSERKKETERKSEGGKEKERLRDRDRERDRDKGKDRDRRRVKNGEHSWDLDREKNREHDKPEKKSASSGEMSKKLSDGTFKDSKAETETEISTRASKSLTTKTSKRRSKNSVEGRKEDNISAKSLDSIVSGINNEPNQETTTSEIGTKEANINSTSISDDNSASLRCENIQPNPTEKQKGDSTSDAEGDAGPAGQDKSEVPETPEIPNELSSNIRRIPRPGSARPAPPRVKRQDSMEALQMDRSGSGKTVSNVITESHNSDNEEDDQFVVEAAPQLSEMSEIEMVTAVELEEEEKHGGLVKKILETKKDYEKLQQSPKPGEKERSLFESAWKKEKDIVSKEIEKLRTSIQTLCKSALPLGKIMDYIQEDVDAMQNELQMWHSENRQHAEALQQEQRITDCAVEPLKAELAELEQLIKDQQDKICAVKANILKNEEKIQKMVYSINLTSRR
UniProt Q14669: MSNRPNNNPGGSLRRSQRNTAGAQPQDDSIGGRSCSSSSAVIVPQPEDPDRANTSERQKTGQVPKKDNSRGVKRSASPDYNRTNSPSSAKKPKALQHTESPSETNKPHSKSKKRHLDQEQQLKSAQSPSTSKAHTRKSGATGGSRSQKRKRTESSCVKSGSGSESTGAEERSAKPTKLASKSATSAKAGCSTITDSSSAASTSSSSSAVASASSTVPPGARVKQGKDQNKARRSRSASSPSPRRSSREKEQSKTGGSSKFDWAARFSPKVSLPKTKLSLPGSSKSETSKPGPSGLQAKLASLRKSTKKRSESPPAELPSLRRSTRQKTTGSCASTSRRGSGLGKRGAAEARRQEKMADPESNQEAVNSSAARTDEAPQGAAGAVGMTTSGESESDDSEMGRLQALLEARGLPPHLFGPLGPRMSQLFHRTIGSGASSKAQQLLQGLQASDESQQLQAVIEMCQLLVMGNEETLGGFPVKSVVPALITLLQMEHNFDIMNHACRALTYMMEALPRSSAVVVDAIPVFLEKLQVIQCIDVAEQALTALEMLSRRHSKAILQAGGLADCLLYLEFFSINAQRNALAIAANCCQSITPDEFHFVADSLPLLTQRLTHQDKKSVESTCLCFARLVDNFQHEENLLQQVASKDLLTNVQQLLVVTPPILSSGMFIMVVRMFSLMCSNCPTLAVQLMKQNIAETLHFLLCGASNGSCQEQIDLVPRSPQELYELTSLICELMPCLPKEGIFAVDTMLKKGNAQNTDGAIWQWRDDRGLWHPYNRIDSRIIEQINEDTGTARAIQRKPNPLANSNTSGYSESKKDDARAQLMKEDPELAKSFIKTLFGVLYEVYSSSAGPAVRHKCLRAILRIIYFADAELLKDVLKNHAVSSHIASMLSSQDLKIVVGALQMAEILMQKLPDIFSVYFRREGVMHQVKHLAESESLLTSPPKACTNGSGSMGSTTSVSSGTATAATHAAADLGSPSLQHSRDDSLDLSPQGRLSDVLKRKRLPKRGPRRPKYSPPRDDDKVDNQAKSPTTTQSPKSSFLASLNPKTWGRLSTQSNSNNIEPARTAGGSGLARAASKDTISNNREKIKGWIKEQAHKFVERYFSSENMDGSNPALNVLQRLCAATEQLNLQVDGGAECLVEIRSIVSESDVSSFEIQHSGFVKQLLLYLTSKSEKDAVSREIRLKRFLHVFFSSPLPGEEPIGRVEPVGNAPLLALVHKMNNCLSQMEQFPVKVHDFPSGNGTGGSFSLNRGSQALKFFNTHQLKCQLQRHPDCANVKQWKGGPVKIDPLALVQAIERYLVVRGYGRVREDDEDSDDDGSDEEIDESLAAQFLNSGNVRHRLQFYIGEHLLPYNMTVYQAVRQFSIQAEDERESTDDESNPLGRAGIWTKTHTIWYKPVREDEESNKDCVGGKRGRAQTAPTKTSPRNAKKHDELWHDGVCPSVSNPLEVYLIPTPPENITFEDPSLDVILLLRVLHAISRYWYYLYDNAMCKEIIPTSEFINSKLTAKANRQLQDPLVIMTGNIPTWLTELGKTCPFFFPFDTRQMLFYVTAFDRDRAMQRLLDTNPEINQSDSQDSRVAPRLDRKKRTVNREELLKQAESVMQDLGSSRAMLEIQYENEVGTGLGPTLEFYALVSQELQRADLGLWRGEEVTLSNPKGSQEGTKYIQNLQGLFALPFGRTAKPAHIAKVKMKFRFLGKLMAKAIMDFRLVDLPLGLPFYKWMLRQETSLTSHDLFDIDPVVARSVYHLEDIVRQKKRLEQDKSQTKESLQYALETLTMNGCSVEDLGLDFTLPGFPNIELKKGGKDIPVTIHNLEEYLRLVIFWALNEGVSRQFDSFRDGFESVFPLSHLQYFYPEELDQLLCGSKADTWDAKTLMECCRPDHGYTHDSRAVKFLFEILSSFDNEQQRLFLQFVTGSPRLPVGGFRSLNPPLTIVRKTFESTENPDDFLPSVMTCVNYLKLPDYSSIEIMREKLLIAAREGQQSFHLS
UniProt Q9H496: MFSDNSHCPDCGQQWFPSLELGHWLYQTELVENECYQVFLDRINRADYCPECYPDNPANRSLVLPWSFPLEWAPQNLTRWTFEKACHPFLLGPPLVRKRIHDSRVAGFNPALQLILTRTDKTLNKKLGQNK
UniProt Q86TN4: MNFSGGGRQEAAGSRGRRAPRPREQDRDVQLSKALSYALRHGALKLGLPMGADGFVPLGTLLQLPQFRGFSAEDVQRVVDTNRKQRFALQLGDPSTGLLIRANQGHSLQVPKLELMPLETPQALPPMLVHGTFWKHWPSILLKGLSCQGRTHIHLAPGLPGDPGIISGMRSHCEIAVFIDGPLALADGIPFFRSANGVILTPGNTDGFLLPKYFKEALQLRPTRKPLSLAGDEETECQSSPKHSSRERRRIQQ
UniProt Q9C037: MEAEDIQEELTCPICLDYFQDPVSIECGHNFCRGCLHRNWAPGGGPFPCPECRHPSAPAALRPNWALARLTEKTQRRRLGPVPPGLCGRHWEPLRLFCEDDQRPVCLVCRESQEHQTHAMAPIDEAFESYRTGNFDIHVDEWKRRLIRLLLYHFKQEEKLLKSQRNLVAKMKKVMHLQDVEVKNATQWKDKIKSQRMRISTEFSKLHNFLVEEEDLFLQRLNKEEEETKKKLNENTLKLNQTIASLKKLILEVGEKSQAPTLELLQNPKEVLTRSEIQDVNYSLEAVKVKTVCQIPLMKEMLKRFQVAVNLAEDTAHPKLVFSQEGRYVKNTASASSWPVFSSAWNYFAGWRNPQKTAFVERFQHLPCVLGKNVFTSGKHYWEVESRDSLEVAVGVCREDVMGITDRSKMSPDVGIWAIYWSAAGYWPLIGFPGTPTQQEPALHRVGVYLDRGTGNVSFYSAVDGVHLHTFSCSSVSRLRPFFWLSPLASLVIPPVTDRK
UniProt Q9H4I3: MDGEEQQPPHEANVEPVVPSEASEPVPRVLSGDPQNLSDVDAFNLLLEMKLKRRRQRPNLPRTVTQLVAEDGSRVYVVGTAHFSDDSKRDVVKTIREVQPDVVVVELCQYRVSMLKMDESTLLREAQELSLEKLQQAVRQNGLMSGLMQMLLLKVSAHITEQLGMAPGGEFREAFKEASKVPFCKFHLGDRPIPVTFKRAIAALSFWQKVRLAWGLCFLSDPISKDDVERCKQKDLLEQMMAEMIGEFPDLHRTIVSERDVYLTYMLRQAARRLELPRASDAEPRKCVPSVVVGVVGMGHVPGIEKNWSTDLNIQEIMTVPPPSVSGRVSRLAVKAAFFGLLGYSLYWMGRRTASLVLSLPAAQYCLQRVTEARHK
UniProt Q32P41: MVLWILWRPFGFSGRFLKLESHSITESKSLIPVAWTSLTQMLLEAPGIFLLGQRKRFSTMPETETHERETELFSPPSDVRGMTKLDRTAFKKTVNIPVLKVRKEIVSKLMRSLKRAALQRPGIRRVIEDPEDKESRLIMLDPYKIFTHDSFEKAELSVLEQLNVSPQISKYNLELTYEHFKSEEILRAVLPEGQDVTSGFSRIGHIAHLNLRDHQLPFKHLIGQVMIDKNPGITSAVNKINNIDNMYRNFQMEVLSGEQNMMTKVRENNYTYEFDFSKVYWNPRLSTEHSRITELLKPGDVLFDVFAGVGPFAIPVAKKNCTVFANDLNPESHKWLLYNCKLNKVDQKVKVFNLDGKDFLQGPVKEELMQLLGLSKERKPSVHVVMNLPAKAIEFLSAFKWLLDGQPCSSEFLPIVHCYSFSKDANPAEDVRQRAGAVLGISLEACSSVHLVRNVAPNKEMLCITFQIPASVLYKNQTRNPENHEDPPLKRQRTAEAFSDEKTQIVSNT
UniProt Q15035: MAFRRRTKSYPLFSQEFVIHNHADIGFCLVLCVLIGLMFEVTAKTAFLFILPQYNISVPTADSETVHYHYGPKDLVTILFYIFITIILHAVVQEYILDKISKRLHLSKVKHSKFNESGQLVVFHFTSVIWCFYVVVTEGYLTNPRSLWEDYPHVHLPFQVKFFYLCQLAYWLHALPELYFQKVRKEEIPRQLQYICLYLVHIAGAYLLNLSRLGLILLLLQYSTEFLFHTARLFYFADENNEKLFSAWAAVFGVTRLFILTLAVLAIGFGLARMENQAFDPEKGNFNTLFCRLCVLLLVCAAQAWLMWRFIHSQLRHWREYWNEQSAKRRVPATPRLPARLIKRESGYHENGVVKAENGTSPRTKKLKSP
UniProt Q9H3H1: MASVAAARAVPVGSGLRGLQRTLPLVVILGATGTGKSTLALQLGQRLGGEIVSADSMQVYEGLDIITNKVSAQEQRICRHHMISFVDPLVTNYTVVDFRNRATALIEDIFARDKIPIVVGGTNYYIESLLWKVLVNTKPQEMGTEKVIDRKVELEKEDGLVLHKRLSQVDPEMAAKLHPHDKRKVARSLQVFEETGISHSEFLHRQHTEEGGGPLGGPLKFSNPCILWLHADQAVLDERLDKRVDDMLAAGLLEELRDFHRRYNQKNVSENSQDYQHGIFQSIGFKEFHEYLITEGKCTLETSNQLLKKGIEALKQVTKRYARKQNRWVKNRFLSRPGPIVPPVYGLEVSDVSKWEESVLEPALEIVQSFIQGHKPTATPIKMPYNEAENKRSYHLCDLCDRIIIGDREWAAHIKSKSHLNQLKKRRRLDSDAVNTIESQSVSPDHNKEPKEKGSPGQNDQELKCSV
UniProt Q6Q0C0: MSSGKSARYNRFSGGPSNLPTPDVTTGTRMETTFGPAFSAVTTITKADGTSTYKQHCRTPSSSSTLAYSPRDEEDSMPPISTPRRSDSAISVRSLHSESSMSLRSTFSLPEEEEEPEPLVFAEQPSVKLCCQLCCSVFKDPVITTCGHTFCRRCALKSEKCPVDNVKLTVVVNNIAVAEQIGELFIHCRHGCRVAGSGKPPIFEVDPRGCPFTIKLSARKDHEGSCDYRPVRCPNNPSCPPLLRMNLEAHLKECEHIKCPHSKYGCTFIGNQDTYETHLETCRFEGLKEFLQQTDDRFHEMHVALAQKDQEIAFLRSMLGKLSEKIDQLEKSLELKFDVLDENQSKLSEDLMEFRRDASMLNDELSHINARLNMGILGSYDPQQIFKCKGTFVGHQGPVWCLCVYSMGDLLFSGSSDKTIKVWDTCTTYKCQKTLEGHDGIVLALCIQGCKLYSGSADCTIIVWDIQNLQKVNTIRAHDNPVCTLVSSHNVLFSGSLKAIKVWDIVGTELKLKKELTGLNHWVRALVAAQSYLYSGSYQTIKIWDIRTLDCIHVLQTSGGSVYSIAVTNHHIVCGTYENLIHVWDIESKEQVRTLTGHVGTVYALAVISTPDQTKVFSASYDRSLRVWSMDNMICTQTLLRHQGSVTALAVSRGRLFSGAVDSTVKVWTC
UniProt Q86W33: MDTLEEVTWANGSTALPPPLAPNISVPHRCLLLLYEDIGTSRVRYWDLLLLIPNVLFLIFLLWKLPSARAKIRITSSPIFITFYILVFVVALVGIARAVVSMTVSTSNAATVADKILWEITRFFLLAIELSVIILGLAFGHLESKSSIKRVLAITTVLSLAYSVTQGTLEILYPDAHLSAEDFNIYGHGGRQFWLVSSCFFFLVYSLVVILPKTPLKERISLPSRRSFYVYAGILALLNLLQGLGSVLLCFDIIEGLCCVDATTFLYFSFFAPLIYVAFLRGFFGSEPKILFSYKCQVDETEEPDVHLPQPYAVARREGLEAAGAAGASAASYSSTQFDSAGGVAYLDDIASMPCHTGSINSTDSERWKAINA
UniProt Q9BW30: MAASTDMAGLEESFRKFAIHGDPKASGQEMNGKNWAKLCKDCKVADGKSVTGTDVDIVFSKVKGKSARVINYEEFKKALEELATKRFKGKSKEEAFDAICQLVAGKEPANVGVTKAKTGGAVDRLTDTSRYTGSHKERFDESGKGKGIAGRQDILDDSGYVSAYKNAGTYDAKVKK

Some of the results follow.

Compound in the first experiment: CNc1nc(-c2ccc3c(N)n[nH]c3c2)cc(N2C[C@@H](C(=O)NC3CCCCC3)CC[C@H]2C)n1
As to the kind of experiment: log2 fold change, soluble protein after heating vs DMSO (PISA); higher = thermal stabilisation; K562 cells, 10 uM, 30 min; active = over 0.2 and 3.5 SD of the protein, either way, in both replicates (recomputed). The essentials:
(§1)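 K562 cells at 2×10^6 cells/mL were treated for 30 min with 10 μM compound, and aliquots were heated for 3 min over 48°C-58°C before pooling. Extraction used PBS with 0.5% NP-40 at 4°C, and soluble protein was the supernatant after 21,000xg for 90 min, measured by TMTpro 16plex LC-MS/MS with channel sums equalised. Thermal stability values, relative to control samples and from duplicates, are log2 fold changes.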
As to TNK2 isoform 3 (UniProt Q07912), the log2 fold change is inactive: -0.025.

Consider TRADD (UniProt Q15628), for which the log2 fold change is inactive: -0.164.

Consider TNKS (UniProt O95271), for which the log2 fold change was inactive: -0.416.

Turning to TRAF3IP1 (UniProt Q8TDR0), the log2 fold change was inactive: 0.074.

TRIP12 isoform 3 (UniProt Q14669): the log2 fold change was inactive: 0.04.

As to TPD52 isoform 3 (UniProt P55327), the log2 fold change is inactive: 0.008.

Compound in another experiment: COC(=O)N[C@@H](C)CNc1nccc(-c2cn(C(C)C)nc2-c2cc(Cl)cc(NS(C)(=O)=O)c2F)n1 [encorafenib]
Described as above. The essentials:
as §1
In the case of TSC2 (UniProt P49815), the log2 fold change was inactive: 0.042.

TRIM29 (UniProt Q14134): the log2 fold change was inactive: -0.077.

TPRG1L (UniProt Q5T0D9): the log2 fold change is inactive: -0.047.

In the case of TNIP1 (UniProt Q15025), the log2 fold change was inactive: -0.132.

Regarding TOR1AIP2 (UniProt Q9H496), the log2 fold change is inactive: -0.1.

As to TRPT1 isoform 4 (UniProt Q86TN4), the log2 fold change is inactive: 0.036.

With TRIO (UniProt O75962), the log2 fold change is inactive: -0.097.

Regarding TRIM4 (UniProt Q9C037), the log2 fold change is inactive: 0.04.

Turning to TRAPPC6A isoform 2 (UniProt O75865), the log2 fold change is inactive: 0.063.

Regarding TRABD (UniProt Q9H4I3), the log2 fold change was inactive: -0.01.

Regarding TRMT5 (UniProt Q32P41), the log2 fold change is inactive: 0.087.

TRAM2 (UniProt Q15035): the log2 fold change is inactive: 0.046.

As to TRIT1 (UniProt Q9H3H1), the log2 fold change was inactive: 0.066.

On to TNXB isoform 4 (UniProt P22105), for which the log2 fold change is inactive: -0.081.

As to TRIP12 isoform 3 (UniProt Q14669), the log2 fold change is inactive: 0.033.

Compound in a further experiment: COC(=O)[C@H](CCSC)NC(=O)C1=C(C=C(C=C1)NC[C@H](CS)N)C2=CC=CC=C2
The description is as above. In a few lines:
as §1
Consider TPD52L2 isoform 3 (UniProt O43399), for which the log2 fold change was inactive: -0.098.

Turning to TRIM4 (UniProt Q9C037), the log2 fold change was inactive: -0.108.

With TRADD (UniProt Q15628), the log2 fold change was inactive: -0.012.

TRABD (UniProt Q9H4I3): the log2 fold change was inactive: -0.033.

As for TRMT5 (UniProt Q32P41), the log2 fold change is inactive: -0.234.

For the target TRAM2 (UniProt Q15035), the log2 fold change was inactive: 0.03.

TRAF7 (UniProt Q6Q0C0): the log2 fold change was inactive: -0.451.

For the target TRAF3 (UniProt Q13114), the log2 fold change is inactive: 0.023.

TRAF3IP1 (UniProt Q8TDR0): the log2 fold change was inactive: -0.108.

Regarding TRIP12 isoform 3 (UniProt Q14669), the log2 fold change is inactive: 0.11.

As for TRIM41 (UniProt Q8WV44), the log2 fold change was inactive: 0.154.

On to TPRA1 (UniProt Q86W33), for which the log2 fold change is inactive: -0.008.

Compound in the next experiment: COC1=CC=C(C=C1)CN2C=CC3=C2C=C(C=C3)C(=O)NO
Described as above. In a few lines:
as §1
TSC2 (UniProt P49815): the log2 fold change is inactive: 0.361.

In the case of TPPP3 (UniProt Q9BW30), the log2 fold change was inactive: 0.003.

On to TRPT1 isoform 4 (UniProt Q86TN4), for which the log2 fold change is inactive: -0.088.

Take TRIO (UniProt O75962): the log2 fold change is inactive: -0.29.

As to TRIM4 (UniProt Q9C037), the log2 fold change was inactive: -0.066.

Regarding TRABD (UniProt Q9H4I3), the log2 fold change was inactive: 0.001.

In the case of TRMT5 (UniProt Q32P41), the log2 fold change is inactive: -0.072.

For the target TNKS (UniProt O95271), the log2 fold change is inactive: 0.242.

Turning to TRAF7 (UniProt Q6Q0C0), the log2 fold change was inactive: -0.216.

For the target TRAF3IP1 (UniProt Q8TDR0), the log2 fold change was inactive: -0.214.

On to TRIT1 (UniProt Q9H3H1), for which the log2 fold change is inactive: -0.026.

TNXB isoform 4 (UniProt P22105): the log2 fold change is inactive: 0.13.

For the target TRIP12 isoform 3 (UniProt Q14669), the log2 fold change was inactive: -0.082.

On to TOM1 (UniProt O60784), for which the log2 fold change is inactive: 0.078.

Compound in the next experiment: CON(C)C(=O)N1N=C(c2cc(F)ccc2F)S[C@@]1(CCCN)c1ccccc1 [filanesib]
The experiment is described as above. In a few lines:
as §1
On to TSC2 (UniProt P49815), for which the log2 fold change is inactive: 0.198.

TPPP3 (UniProt Q9BW30): the log2 fold change was inactive: 0.048.

Regarding TPRG1L (UniProt Q5T0D9), the log2 fold change is inactive: -0.152.

For the target TNIP1 (UniProt Q15025), the log2 fold change was inactive: 0.023.

For TRPT1 isoform 4 (UniProt Q86TN4), the log2 fold change is inactive: -0.053.

On to TRIO (UniProt O75962), for which the log2 fold change was inactive: -0.044.

Regarding TRIM4 (UniProt Q9C037), the log2 fold change is inactive: 0.003.

Regarding TRABD (UniProt Q9H4I3), the log2 fold change is inactive: 0.051.

On to TRAM2 (UniProt Q15035), for which the log2 fold change was inactive: -0.147.

As for TRIM33 isoform 2 (UniProt Q9UPN9), the log2 fold change was inactive: -0.225.

As for TRAF7 (UniProt Q6Q0C0), the log2 fold change was inactive: -0.107.

Turning to TOM1 (UniProt O60784), the log2 fold change is inactive: -0.061.

TPRA1 (UniProt Q86W33): the log2 fold change is inactive: -0.108.

Compound in another experiment: CO[C@H]1C[C@@H]2CC[C@@H](C)[C@@](O)(O2)C(=O)C(=O)N2CCCC[C@H]2C(=O)O[C@H]([C@H](C)C[C@@H]2CC[C@H](n3cnnn3)[C@H](OC)C2)CC(=O)[C@H](C)/C=C(\C)[C@@H](O)[C@@H](OC)C(=O)[C@H](C)C[C@H](C)/C=C/C=C/C=C/1C [zotarolimus]
The description is as above. In a few lines:
as §1
Take TSC2 (UniProt P49815): the log2 fold change was inactive: -0.181.

TRPS1 isoform 2 (UniProt Q9UHF7): the log2 fold change is inactive: -0.298.

TRIM4 (UniProt Q9C037): the log2 fold change is inactive: 0.056.

Regarding TRAPPC6A isoform 2 (UniProt O75865), the log2 fold change is inactive: 0.117.

Consider TRABD (UniProt Q9H4I3), for which the log2 fold change is inactive: 0.11.

In the case of TRAM2 (UniProt Q15035), the log2 fold change was inactive: -0.047.

Take TRAF7 (UniProt Q6Q0C0): the log2 fold change was inactive: 0.081.

As to TRAF3IP1 (UniProt Q8TDR0), the log2 fold change was inactive: -0.218.

For the target TRIT1 (UniProt Q9H3H1), the log2 fold change was inactive: 0.092.
